Values are relative to the signal before dosing, not to a vehicle control; the signal also falls without drug.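 Fibroblast labels name human fibroblasts: mostly primary ones from tissues such as uterus (C12385, HUF), lung (H6013), bone (Hs27A), adrenal (HADF) and skin (WS1), plus mammary HMF and breast cancer-associated Hs343T. The cancer cells are basal-like or mesenchymal-like triple-negative breast cancer lines. The paper calls a changed response a hit when it shifts by more than 3x the replicate standard deviation. The tissue of the other fibroblasts is not given here.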
Tested on: HCC1143
Test: relative JC-1 red fluorescence (viability) vs pre-drug, coculture with fibroblast (fraction); higher = more viable cancer cells
Method: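 JC-1 labelled TNBC cells cocultured 1:1 (1,500 cells each) with CellTrace Violet stained primary or stromal fibroblasts in 384-well plates in FluoroBrite medium, treated with one of 42 anticancer drugs at 0.1, 1, 10 or 100 uM. JC-1 red fluorescence (mitochondrial integrity in cancer cells only) was read by plate reader every 8 h for 72 h. Values are normalised to each well's pre-drug value. The stock of one drug was tenfold lower, so its dose labels may be too high.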

O=C(CCCCCCC(=O)Nc1ccccc1)NO [Vorinostat]
relative JC-1 red fluorescence
Details | 8 h | 16 h | 24 h | 32 h | 40 h | 48 h | 56 h | 64 h | 72 h
0.1 µM, coculture fibroblast: C12385 | 0.842 | 0.76 | 0.699 | 0.633 | 0.565 | 0.503 | 0.46 | 0.415 | 0.397
0.1 µM, coculture fibroblast: H6013 | 0.772 | 0.693 | 0.66 | 0.639 | 0.569 | 0.558 | 0.52 | 0.498 | 0.468
0.1 µM, coculture fibroblast: H6019 | 0.801 | 0.714 | 0.661 | 0.6078 | 0.5686 | 0.542 | 0.497 | 0.454 | 0.419
0.1 µM, coculture fibroblast: H6076 | 0.7928 | 0.814 | 0.75 | 0.6733 | 0.64 | 0.617 | 0.579 | 0.5509 | 0.5538
0.1 µM, coculture fibroblast: H6231 | 0.817 | 0.837 | 0.757 | 0.63 | 0.668 | 0.639 | 0.601 | 0.569 | 0.55
0.1 µM, coculture fibroblast: HADF | 0.7052 | 0.6138 | 0.5748 | 0.56629 | 0.4545 | 0.4229 | 0.389 | 0.3635 | 0.352
0.1 µM, coculture fibroblast: HCFa | 0.783 | 0.708 | 0.66 | 0.638 | 0.545 | 0.519 | 0.468 | 0.428 | 0.405
0.1 µM, coculture fibroblast: HCPF | 0.793 | 0.79 | 0.734 | 0.616 | 0.63 | 0.595 | 0.546 | 0.51 | 0.489
0.1 µM, coculture fibroblast: HHSteC | 0.83 | 0.768 | 0.724 | 0.686 | 0.617 | 0.589 | 0.543 | 0.513 | 0.459
0.1 µM, coculture fibroblast: HMF | 0.7831 | 0.861 | 0.761 | 0.618 | 0.641 | 0.59 | 0.523 | 0.475 | 0.44
0.1 µM, coculture fibroblast: HPFa | 0.8799 | 0.772 | 0.722 | 0.633 | 0.574 | 0.536 | 0.472 | 0.417 | 0.379
0.1 µM, coculture fibroblast: HUF | 0.846 | 0.761 | 0.697 | 0.627 | 0.579 | 0.539 | 0.495 | 0.459 | 0.44
0.1 µM, coculture fibroblast: Hs5 | 0.828 | 0.8932 | 0.828 | 0.761 | 0.715 | 0.677 | 0.629 | 0.592 | 0.566
0.1 µM, coculture fibroblast: Hs27A | 0.712 | 0.6066 | 0.565 | 0.57 | 0.452 | 0.437 | 0.387 | 0.359 | 0.335
0.1 µM, coculture fibroblast: Hs343T | 0.8144 | 0.856 | 0.79 | 0.665 | 0.654 | 0.609 | 0.5572 | 0.5292 | 0.498
0.1 µM, coculture fibroblast: WS1 | 0.80794 | 0.7231 | 0.6613 | 0.57883 | 0.514 | 0.469 | 0.409 | 0.372 | 0.346
1 µM, coculture fibroblast: C12385 | 0.856 | 0.761 | 0.67 | 0.578 | 0.503 | 0.447 | 0.406 | 0.37 | 0.361
1 µM, coculture fibroblast: H6013 | 0.739 | 0.644 | 0.58 | 0.543 | 0.475 | 0.466 | 0.44 | 0.4276 | 0.389
1 µM, coculture fibroblast: H6019 | 0.805 | 0.725 | 0.683 | 0.627 | 0.599 | 0.571 | 0.539 | 0.511 | 0.487
1 µM, coculture fibroblast: H6076 | 0.805 | 0.808 | 0.725 | 0.691 | 0.638 | 0.629 | 0.594 | 0.574 | 0.583
1 µM, coculture fibroblast: H6231 | 0.7826 | 0.821 | 0.709 | 0.544 | 0.58 | 0.53 | 0.492 | 0.453 | 0.429
1 µM, coculture fibroblast: HADF | 0.7172 | 0.63 | 0.5835 | 0.578 | 0.4703 | 0.44064 | 0.4099 | 0.3873 | 0.3703
1 µM, coculture fibroblast: HCFa | 0.805 | 0.717 | 0.677 | 0.648 | 0.582 | 0.559 | 0.515 | 0.487 | 0.438
1 µM, coculture fibroblast: HCPF | 0.775 | 0.813 | 0.721 | 0.604 | 0.625 | 0.586 | 0.533 | 0.498 | 0.486
1 µM, coculture fibroblast: HHSteC | 0.787 | 0.684 | 0.616 | 0.5591 | 0.474 | 0.443 | 0.395 | 0.373 | 0.328
1 µM, coculture fibroblast: HMF | 0.8 | 0.827 | 0.7055 | 0.62 | 0.586 | 0.554 | 0.51 | 0.483 | 0.464
1 µM, coculture fibroblast: HPFa | 0.92 | 0.805 | 0.752 | 0.659 | 0.595 | 0.566 | 0.503 | 0.4675 | 0.4395
1 µM, coculture fibroblast: HUF | 0.86 | 0.756 | 0.687 | 0.6025 | 0.56 | 0.527 | 0.487 | 0.447 | 0.426
1 µM, coculture fibroblast: Hs5 | 0.815 | 0.87 | 0.774 | 0.729 | 0.669 | 0.635 | 0.585 | 0.552 | 0.537
1 µM, coculture fibroblast: Hs27A | 0.666 | 0.568 | 0.518 | 0.571 | 0.457 | 0.451 | 0.414 | 0.403 | 0.403
1 µM, coculture fibroblast: Hs343T | 0.796 | 0.8126 | 0.718 | 0.655 | 0.613 | 0.583 | 0.534 | 0.511 | 0.493
1 µM, coculture fibroblast: WS1 | 0.833 | 0.759 | 0.68 | 0.595 | 0.533 | 0.479 | 0.434 | 0.398 | 0.381
10 µM, coculture fibroblast: C12385 | 0.851 | 0.736 | 0.664 | 0.599 | 0.536 | 0.499 | 0.479 | 0.447 | 0.434
10 µM, coculture fibroblast: H6013 | 0.767 | 0.653 | 0.602 | 0.585 | 0.535 | 0.542 | 0.522 | 0.514 | 0.469
10 µM, coculture fibroblast: H6019 | 0.796 | 0.721 | 0.673 | 0.622 | 0.61 | 0.601 | 0.577 | 0.565 | 0.555
10 µM, coculture fibroblast: H6076 | 0.786 | 0.799 | 0.708 | 0.613 | 0.587 | 0.569 | 0.543 | 0.52 | 0.526
10 µM, coculture fibroblast: H6231 | 0.828 | 0.865 | 0.734 | 0.579 | 0.605 | 0.566 | 0.526 | 0.499 | 0.485
10 µM, coculture fibroblast: HADF | 0.762 | 0.665 | 0.611 | 0.586 | 0.513 | 0.504 | 0.475 | 0.455 | 0.421
10 µM, coculture fibroblast: HCFa | 0.76 | 0.63 | 0.569 | 0.547 | 0.441 | 0.415 | 0.379 | 0.349 | 0.329
10 µM, coculture fibroblast: HCPF | 0.8086 | 0.789 | 0.7 | 0.592 | 0.5786 | 0.53636 | 0.4916 | 0.4549 | 0.441
10 µM, coculture fibroblast: HHSteC | 0.8095 | 0.708 | 0.648 | 0.581 | 0.516 | 0.498 | 0.455 | 0.433 | 0.377
10 µM, coculture fibroblast: HMF | 0.797 | 0.827 | 0.729 | 0.596 | 0.606 | 0.562 | 0.5147 | 0.484 | 0.4531
10 µM, coculture fibroblast: HPFa | 0.9108 | 0.779 | 0.692 | 0.589 | 0.526 | 0.499 | 0.462 | 0.442 | 0.424
10 µM, coculture fibroblast: HUF | 0.882 | 0.773 | 0.692 | 0.618 | 0.58 | 0.566 | 0.53 | 0.527 | 0.519
10 µM, coculture fibroblast: Hs5 | 0.8251 | 0.887 | 0.784 | 0.693 | 0.624 | 0.584 | 0.5488 | 0.531 | 0.525
10 µM, coculture fibroblast: Hs27A | 0.722 | 0.615 | 0.561 | 0.572 | 0.476 | 0.479 | 0.459 | 0.454 | 0.4452
10 µM, coculture fibroblast: Hs343T | 0.802 | 0.814 | 0.7101 | 0.593 | 0.567 | 0.518 | 0.468 | 0.444 | 0.425
10 µM, coculture fibroblast: WS1 | 0.829 | 0.716 | 0.631 | 0.55 | 0.493 | 0.456 | 0.42 | 0.396 | 0.374
100 µM, coculture fibroblast: C12385 | 0.834 | 0.724 | 0.6063 | 0.507 | 0.431 | 0.384 | 0.348 | 0.32018 | 0.307
100 µM, coculture fibroblast: H6013 | 0.7719 | 0.668 | 0.597 | 0.575 | 0.499 | 0.497 | 0.475 | 0.471 | 0.431
100 µM, coculture fibroblast: H6019 | 0.82 | 0.7277 | 0.658 | 0.5755 | 0.539 | 0.526 | 0.51 | 0.49 | 0.47
100 µM, coculture fibroblast: H6076 | 0.7863 | 0.732 | 0.658 | 0.61 | 0.534 | 0.53 | 0.519 | 0.508 | 0.538
100 µM, coculture fibroblast: H6231 | 0.829 | 0.765 | 0.6675 | 0.633 | 0.5595 | 0.5465 | 0.513 | 0.487 | 0.48
100 µM, coculture fibroblast: HADF | 0.744 | 0.6365 | 0.544 | 0.492 | 0.402 | 0.389 | 0.355 | 0.33 | 0.288
100 µM, coculture fibroblast: HCFa | 0.77 | 0.625 | 0.537 | 0.478 | 0.368 | 0.344 | 0.306 | 0.292 | 0.26
100 µM, coculture fibroblast: HCPF | 0.8252 | 0.783 | 0.686 | 0.62 | 0.565 | 0.526 | 0.486 | 0.456 | 0.442
100 µM, coculture fibroblast: HHSteC | 0.788 | 0.671 | 0.571 | 0.493 | 0.403 | 0.379 | 0.337 | 0.317 | 0.262
100 µM, coculture fibroblast: HMF | 0.791 | 0.769 | 0.654 | 0.58 | 0.515 | 0.484 | 0.451 | 0.425 | 0.41
100 µM, coculture fibroblast: HPFa | 0.89 | 0.7597 | 0.663 | 0.555 | 0.472 | 0.447 | 0.414 | 0.3944 | 0.375
100 µM, coculture fibroblast: HUF | 0.862 | 0.756 | 0.649 | 0.542 | 0.481 | 0.451 | 0.405 | 0.384 | 0.368
100 µM, coculture fibroblast: Hs5 | 0.868 | 0.807 | 0.755 | 0.742 | 0.654 | 0.63 | 0.618 | 0.608 | 0.6278
100 µM, coculture fibroblast: Hs27A | 0.728 | 0.613 | 0.512 | 0.507 | 0.417 | 0.429 | 0.411 | 0.4 | 0.359
100 µM, coculture fibroblast: Hs343T | 0.792 | 0.7704 | 0.68 | 0.604 | 0.539 | 0.513 | 0.483 | 0.468 | 0.464
100 µM, coculture fibroblast: WS1 | 0.812 | 0.689 | 0.611 | 0.504 | 0.43 | 0.383 | 0.347 | 0.321 | 0.305
